Test system: other tumor types
Experiment: Presentation or detection of the peptides on other tumor types (LC-MS of HLA ligands)
Set-up: species or system human
Details: for Other relevant organs/diseases: tumor types with over-presentation on more than 5% of samples, or presentation on more than 5% with tumor vs normal ratio larger than 3, Table 4A; for Additional Entities: tumor types with over-presentation on more than 5% of samples, or presentation on more than 5% with tumor vs normal ratio larger than three, Table 4B
Procedure: (§1) Table 4A: Peptides according to the present invention and their specific uses in other proliferative diseases, especially in other cancerous diseases. […] Over-presentation is defined as higher presentation on the tumor sample as compared to the normal sample with highest presentation. Normal tissues against which over-presentation was tested were: adipose tissue, adrenal gland, artery, bone marrow, brain, central nerve, colon, duodenum, esophagus, eye, gallbladder, heart, kidney, liver, lung, lymph node, mononuclear white blood cells, pancreas, parathyroid gland, peripheral nerve, peritoneum, pituitary, pleura, rectum, salivary gland, skeletal muscle, skin, small intestine, spleen, stomach, thyroid gland, trachea, ureter, urinary bladder, vein.
as §1, with “4B:” for “4A:”, “colon,” for “colon, duodenum,”, “node,” for “node, mononuclear”, “stomach, thymus,” for “stomach,”
FIGS. 1A to 1G show the over-presentation of various peptides in normal tissues (white bars) and gallbladder cancer and cholangiocarcinoma (black bars). FIG. 1A: Gene symbol: MON2, Peptide: AVMTDLPVI, (SEQ ID NO.: 16), Tissues from left to right: 6 adipose tissues, 8 adrenal glands, 24 blood cells, 17 blood vessels, 10 bone marrows, 15 brains, 8 breasts, 4 cartilages, 7 esophagi, 2 eyes, 16 hearts, 19 kidneys, 21 large intestines, 25 livers, 49 lungs, 8 lymph nodes, 13 nerves, 3 ovaries, 11 pancreases, 6 parathyroid glands, 1 peritoneum, 6 pituitary glands, 7 placentas, 1 pleura, 3 prostates, 7 salivary glands, 10 skeletal muscles, 12 skins, 6 small intestines, 12 spleens, 5 stomachs, 7 testes, 2 thymi, 2 thyroid glands, 14 tracheas, 7 ureters, 8 urinary bladders, 6 uteri, 3 gallbladders, 17 gallbladder cancer and cholangiocarcinoma samples. The peptide has additionally been detected on 5/18 acute myeloid leukemias, 7/48 benign prostatic hyperplasias, 8/18 breast cancers, 4/17 chronic lymphocytic leukemias, 1/29 colorectal cancers, 3/34 brain cancers, 4/21 liver cancers, 4/10 head and neck cancers, 4/18 melanomas, 12/20 non-Hodgkin lymphomas, 10/90 non-small cell lung cancers, 6/20 ovarian cancers, 2/18 esophageal cancers, 3/19 pancreatic cancers, 3/23 kidney cancers, 6/17 small cell lung cancers, 3/15 urinary bladder cancers, and 6/16 uterus cancers. FIG. 1B: Gene symbol: CDC25B, Peptide: ISAPLVKTL (SEQ ID NO.: 24), Tissues from left to right: 6 adipose tissues, 8 adrenal glands, 24 blood cells, 17 blood vessels, 10 bone marrows, 15 brains, 8 breasts, 4 cartilages, 7 esophagi, 2 eyes, 16 hearts, 19 kidneys, 21 large intestines, 25 livers, 49 lungs, 8 lymph nodes, 13 nerves, 3 ovaries, 11 pancreases, 6 parathyroid glands, 1 peritoneum, 6 pituitary glands, 7 placentas, 1 pleura, 3 prostates, 7 salivary glands, 10 skeletal muscles, 12 skins, 6 small intestines, 12 spleens, 5 stomachs, 7 testes, 2 thymi, 2 thyroid glands, 14 tracheas, 7 ureters, 8 urinary bladders, 6 uteri, 3 gallbladders, 17 gallbladder cancer and cholangiocarcinoma samples. The peptide has additionally been detected on 1/20 ovarian cancers. […]

1 (YAAEIASAL; listed as Homo sapiens) [compound 1]
Other relevant organs/diseases: AML, Melanoma

6 (LLLPLLPPLSPS; listed as Homo sapiens) [compound 6]
Other relevant organs/diseases: SCLC, PC
Additional Entities: Brain Cancer

7 (LLLSDPDKVTI; listed as Homo sapiens) [compound 7]
Other relevant organs/diseases: HCC

16 (AVMTDLPVI; listed as Homo sapiens) [compound 16]
peptide additionally detected on (samples/total) (acute myeloid leukemias): 5/18
peptide additionally detected on (samples/total) (benign prostatic hyperplasias): 7/48
peptide additionally detected on (samples/total) (brain cancers): 3/34
peptide additionally detected on (samples/total) (breast cancers): 8/18
peptide additionally detected on (samples/total) (chronic lymphocytic leukemias): 4/17
peptide additionally detected on (samples/total) (colorectal cancers): 1/29
peptide additionally detected on (samples/total) (esophageal cancers): 2/18
peptide additionally detected on (samples/total) (head and neck cancers): 4/10
peptide additionally detected on (samples/total) (kidney cancers): 3/23
peptide additionally detected on (samples/total) (liver cancers): 4/21
peptide additionally detected on (samples/total) (melanomas): 4/18
peptide additionally detected on (samples/total) (non-Hodgkin lymphomas): 12/20
peptide additionally detected on (samples/total) (non-small cell lung cancers): 10/90
peptide additionally detected on (samples/total) (ovarian cancers): 6/20
peptide additionally detected on (samples/total) (pancreatic cancers): 3/19
peptide additionally detected on (samples/total) (small cell lung cancers): 6/17
Other relevant organs/diseases: CLL, NHL, AML
peptide additionally detected on (samples/total) (urinary bladder cancers): 3/15
peptide additionally detected on (samples/total) (uterus cancers): 6/16

17 (VLYDNTQLQL; listed as Homo sapiens) [compound 17]
Other relevant organs/diseases: NHL, AML
Additional Entities: CLL, OC, Urinary bladder cancer

18 (SLSPDLSQV; listed as Homo sapiens) [compound 18]
Other relevant organs/diseases: HCC, NHL, AML

20 (VLQDELPQL; listed as Homo sapiens) [compound 20]
Other relevant organs/diseases: NSCLC, NHL, AML, HNSCC, OC

21 (IAFPTSISV; listed as Homo sapiens) [compound 21]
Other relevant organs/diseases: BRCA

24 (ISAPLVKTL; listed as Homo sapiens) [compound 24]
peptide additionally detected on (samples/total) (ovarian cancers): 1/20
Additional Entities: CLL

25 (NLSETASTMAL; listed as Homo sapiens) [compound 25]
peptide additionally detected on (samples/total) (liver cancers): 1/21
peptide additionally detected on (samples/total) (non-Hodgkin lymphomas): 1/20
peptide additionally detected on (samples/total) (non-small cell lung cancers): 4/90
peptide additionally detected on (samples/total) (ovarian cancers): 1/20
peptide additionally detected on (samples/total) (small cell lung cancers): 1/17
Other relevant organs/diseases: SCLC, NHL, Urinary bladder cancer
peptide additionally detected on (samples/total) (urinary bladder cancers): 1/15

26 (TAQTLVRIL; listed as Homo sapiens) [compound 26]
Other relevant organs/diseases: CLL, BRCA

28 (YASGSSASL; listed as Homo sapiens) [compound 28]
Other relevant organs/diseases: RCC, AML, Melanoma

29 (FASEVSNVL; listed as Homo sapiens) [compound 29]
Other relevant organs/diseases: SCLC, RCC, CLL, AML, Melanoma

30 (FASGLIHRV; listed as Homo sapiens) [compound 30]
Other relevant organs/diseases: CLL, AML

31 (IAIPFLIKL; listed as Homo sapiens) [compound 31]
Other relevant organs/diseases: SCLC, NHL
Additional Entities: HCC, BRCA

32 (YVISQVFEI; listed as Homo sapiens) [compound 32]
Other relevant organs/diseases: CLL, Melanoma
Additional Entities: NSCLC

From patent US10377811B2, “Peptides, combination of peptides as targets and for use in immunotherapy against gallbladder cancer and cholangiocarcinoma and other cancers” (Immatics biotechnologies GmbH, priority 2016, dated 2019)
